# The other results are listed elsewhere or left out. Only a few entries rise above the background.
# B1: 4-173.2 (protein)
# chain 1: QLQLQESGPGLVKPSETLSLTCAVSGGSINSNYWSWIRQPPGKGLDWIGRISGSGGSTDYNPSLKSRVTISTDTSKTQFSLKLRSVTAADTAVYYCGRGSYQIDYWGQGILVTVSS
# chain 2: QAALTQPPSMSGSPGQSVTISCTGTSSDIGGYNRVSWYQQYPGKAPKLMIYEVSKRPSGVSDRFSGSKSGNTASLTISGLQAADEADYYCSSYAGSKALFGGGTRLTVL
# Experiments:
# Assay in all cases: fluorescence intensity of antibody binding to polysaccharide-coupled beads; higher = stronger binding
# [1] = molecular target: pneumococcal polysaccharide Pn44
# [2] = molecular target: pneumococcal polysaccharide Pn45
# [3] = molecular target: pneumococcal polysaccharide Pn46
# [4] = molecular target: pneumococcal polysaccharide Pn47A
# [5] = molecular target: pneumococcal polysaccharide Pn47F
# [6] = molecular target: pneumococcal polysaccharide Pn48
# [7] = molecular target: pneumococcal polysaccharide Pn5
# [8] = molecular target: pneumococcal polysaccharide Pn6A
# [9] = molecular target: pneumococcal polysaccharide Pn6B
# [10] = molecular target: pneumococcal polysaccharide Pn6C
# [11] = molecular target: pneumococcal polysaccharide Pn6D
# [12] = molecular target: pneumococcal polysaccharide Pn7A
# [13] = antibody concentration 0.1 ng/mL
# [14] = antibody concentration 0.534724 ng/mL
# [15] = antibody concentration 2.8593 ng/mL
# [16] = antibody concentration 15.2894 ng/mL
# [17] = antibody concentration 81.7561 ng/mL
# [18] = antibody concentration 437.17 ng/mL
# [19] = antibody concentration 2337.65 ng/mL
# [20] = antibody concentration 12500 ng/mL
binder,measurement,setting,value
B1,fluorescence intensity,[1]; [13],25.2 MFI
same,fluorescence intensity,[1]; [14],25 MFI
same,fluorescence intensity,[1]; [15],26 MFI
same,fluorescence intensity,[1]; [16],24.5 MFI
same,fluorescence intensity,[1]; [17],26 MFI
same,fluorescence intensity,[1]; [18],26.5 MFI
same,fluorescence intensity,[1]; [19],28 MFI
same,fluorescence intensity,[1]; [20],39 MFI
same,fluorescence intensity,[2]; [13],10.8 MFI
same,fluorescence intensity,[2]; [14],11 MFI
same,fluorescence intensity,[2]; [15],10.5 MFI
same,fluorescence intensity,[2]; [16],11.5 MFI
same,fluorescence intensity,[2]; [17],11.5 MFI
same,fluorescence intensity,[2]; [18],12.5 MFI
same,fluorescence intensity,[2]; [19],14.5 MFI
same,fluorescence intensity,[2]; [20],19 MFI
same,fluorescence intensity,[3]; [13],24.5 MFI
same,fluorescence intensity,[3]; [14],23 MFI
same,fluorescence intensity,[3]; [15],24.5 MFI
same,fluorescence intensity,[3]; [16],24 MFI
same,fluorescence intensity,[3]; [17],24 MFI
same,fluorescence intensity,[3]; [18],24.5 MFI
same,fluorescence intensity,[3]; [19],30.5 MFI
same,fluorescence intensity,[3]; [20],81.8 MFI
same,fluorescence intensity,[4]; [13],15.5 MFI
same,fluorescence intensity,[4]; [14],14.8 MFI
same,fluorescence intensity,[4]; [15],15.5 MFI
same,fluorescence intensity,[4]; [16],15.5 MFI
same,fluorescence intensity,[4]; [17],16.8 MFI
same,fluorescence intensity,[4]; [18],16 MFI
same,fluorescence intensity,[4]; [19],17 MFI
same,fluorescence intensity,[4]; [20],30 MFI
same,fluorescence intensity,[5]; [13],11.5 MFI
same,fluorescence intensity,[5]; [14],11 MFI
same,fluorescence intensity,[5]; [15],12.5 MFI
same,fluorescence intensity,[5]; [16],11 MFI
same,fluorescence intensity,[5]; [17],12 MFI
same,fluorescence intensity,[5]; [18],12 MFI
same,fluorescence intensity,[5]; [19],17 MFI
same,fluorescence intensity,[5]; [20],69.8 MFI
same,fluorescence intensity,[6]; [13],23 MFI
same,fluorescence intensity,[6]; [14],23.2 MFI
same,fluorescence intensity,[6]; [15],21.5 MFI
same,fluorescence intensity,[6]; [16],22.5 MFI
same,fluorescence intensity,[6]; [17],24 MFI
same,fluorescence intensity,[6]; [18],25.5 MFI
same,fluorescence intensity,[6]; [19],35 MFI
same,fluorescence intensity,[6]; [20],47 MFI
same,fluorescence intensity,[7]; [13],8 MFI
same,fluorescence intensity,[7]; [14],9.5 MFI
same,fluorescence intensity,[7]; [15],9.5 MFI
same,fluorescence intensity,[7]; [16],9 MFI
same,fluorescence intensity,[7]; [17],9 MFI
same,fluorescence intensity,[7]; [18],10.8 MFI
same,fluorescence intensity,[7]; [19],16.5 MFI
same,fluorescence intensity,[7]; [20],103 MFI
same,fluorescence intensity,[8]; [13],20.8 MFI
same,fluorescence intensity,[8]; [14],21 MFI
same,fluorescence intensity,[8]; [15],22 MFI
same,fluorescence intensity,[8]; [16],22.8 MFI
same,fluorescence intensity,[8]; [17],24.5 MFI
same,fluorescence intensity,[8]; [18],25.5 MFI
same,fluorescence intensity,[8]; [19],30.5 MFI
same,fluorescence intensity,[8]; [20],42.2 MFI
same,fluorescence intensity,[9]; [13],18.2 MFI
same,fluorescence intensity,[9]; [14],19 MFI
same,fluorescence intensity,[9]; [15],19.2 MFI
same,fluorescence intensity,[9]; [16],19 MFI
same,fluorescence intensity,[9]; [17],19 MFI
same,fluorescence intensity,[9]; [18],22.8 MFI
same,fluorescence intensity,[9]; [19],23 MFI
same,fluorescence intensity,[9]; [20],35 MFI
same,fluorescence intensity,[10]; [13],19.5 MFI
same,fluorescence intensity,[10]; [14],18 MFI
same,fluorescence intensity,[10]; [15],29 MFI
same,fluorescence intensity,[10]; [16],40 MFI
same,fluorescence intensity,[10]; [17],59 MFI
same,fluorescence intensity,[10]; [18],49.8 MFI
same,fluorescence intensity,[10]; [19],54.2 MFI
same,fluorescence intensity,[10]; [20],76 MFI
same,fluorescence intensity,[11]; [13],17.8 MFI
same,fluorescence intensity,[11]; [14],16.8 MFI
same,fluorescence intensity,[11]; [15],14.5 MFI
same,fluorescence intensity,[11]; [16],15 MFI
same,fluorescence intensity,[11]; [17],17.5 MFI
same,fluorescence intensity,[11]; [18],17.5 MFI
same,fluorescence intensity,[11]; [19],20.5 MFI
same,fluorescence intensity,[11]; [20],31 MFI
same,fluorescence intensity,[12]; [13],20.8 MFI
same,fluorescence intensity,[12]; [14],18.5 MFI

# Looked up one by one from the entries so far (2):
binder,measurement,setting,value
B1,fluorescence intensity,[5]; [17],12 MFI
same,fluorescence intensity,[6]; [20],47 MFI

# Shown tab-delimited: entries from further up.
binder	measurement	setting	value
B1	fluorescence intensity	[1]; [16]	24.5 MFI
same	fluorescence intensity	[1]; [17]	26 MFI
same	fluorescence intensity	[1]; [18]	26.5 MFI

# From the supplement of paper PMC11438910
